Binding data for one substance are collected here from publication PMC10688885.

These are yes or no findings as the source states them, for the method shown. Binding calls can cover weak binding; strength is not graded here.

This assay deals with CdxB (C. crescentus). Description: two-hybrid; bacterial two-hybrid: fusions to the T18c and T25 fragments of adenylate cyclase co-expressed in E. coli BTH101; lacZ reporter, β-galactosidase activity in Miller units (liquid culture, 30°C, 0.5 mM IPTG) and spots on X-gal plates.

For the substance CdxA (from UniProt A0A0H3C2L6), the binding entry is “binds”.
